Entries after “also recorded” stand apart in the source; their conditions may differ.
Assays:
ApoE−/− mice [1] = assay: Atherosclerotic plaques of the aorta (en face oil red O staining) in high-fat diet ApoE−/− mice; type: in vivo; conditions: ATV 40 mg/kg orally once a day, 13 weeks; **P<0.01
Experimental: FIGS. 15-16. The sDSS1 protein inhibits the formation of atherosclerotic plaques in ApoE−/− mice. 16-week-old ApoE−/− mice were continuously injected with sDSS1 at 3 mpk or ATV at 40 mpk for 13 consecutive weeks. At the end of the injection, the aorta was dissected for oil red O staining, and the area of plaques was calculated.
Experimental animals: ApoE−/− mice, 8-week-old, male, were purchased from Nanjing Biomedical Research Institute of Nanjing University. The experimental animals were housed in an animal room for one week before the experiment.
Materials: sDSS1 protein, Atorvastatin (ATV).
Experimental method: ApoE−/− mice were fed with high-fat diet containing 0.25% cholesterol starting from the age of 9 weeks. From the 10th week of high-fat diet feeding, the mice were randomly divided into three groups according to the total cholesterol level, with 10 mice in each group. 200 μl of normal saline was intraperitoneally injected in the model group once a day, 40 mg/kg of ATV was orally given in positive drug group once a day, and 3 mg/kg of sDSS1 protein was intraperitoneally injected in sDSS1 group once a day. At the 22nd week of high-fat diet feeding, that is, the 13th week of administration, the animals were executed and dissected, and the whole aorta was separated. The separated aorta was stained with en face oil red O to evaluate the formation of atherosclerotic plaques.

ApoE−/− mice [2] = assay: Plasma oxLDL and LDL levels (ELISA) in ApoE−/− mice after 7 days of administration; type: in vivo
Experimental: ApoE−/− mice were divided into two groups, the control group and the sDSS1 protein administration group. The control group was given 200 μl of normal saline once a day by intraperitoneal injection, and the administration group was administered the sDSS1 protein once a day according to 10 mg/kg body weight (10 mpk) or 30 mg/kg body weight (30 mpk) by intraperitoneal injection, and atorvastatin (ATV) as a positive control drug was administered per day according to 40 mg/kg body weight (40 mpk) by intraperitoneal injection for 7 consecutive days. At the end of the administration, the plasma levels of oxLDL and LDL in mice were detected.
Experimental animal: ApoE−/− mice, 8-10 weeks old, male, were purchased from Nanjing Biomedical Research Institute of Nanjing University. The animals were housed in an animal room for one week before the experiment.
Experimental materials: sDSS1 protein, oxLDL ELISA kit (Wuhan Elabscience Biotechnology Co., Ltd., Article No.: E-EL-M0066c), LDL ELISA kit (Wuhan Elabscience Biotechnology Co., Ltd., product No.: E-EL-M1363c)
Experimental method: the ApoE−/− mice were randomly divided into two groups, a control group and a sDSS1 protein group. […] The plasma oxLDL level was measured by using the oxLDL ELISA kit, and the plasma LDL level was measured by the LDL ELISA kit. […]

## CC(C)c1c(C(=O)Nc2ccccc2)c(-c2ccccc2)c(-c2ccc(F)cc2)n1CC[C@@H](O)C[C@@H](O)CC(=O)O [ATV, Atorvastatin, reference compound]
ApoE−/− mice [1]
  Plaque area ratio (oil red O stained area / total aortic area) vs model group: significantly smaller
ApoE−/− mice [2]; ATV 40 mg/kg (40 mpk) per day intraperitoneal
  Plasma oxLDL level, efficacy of the positive control compared with sDSS1: similar; also recorded: same efficacy
ApoE−/− mice [2]; ATV 40 mpk per day intraperitoneal
  Plasma oxLDL/LDL ratio, efficacy of the positive control compared with sDSS1: basically consistent

Source: US12433934B2, “Methods and compositions for preventing and treating atherosclerosis and related diseases” (Shanghai Puyou Biomedical Co., Ltd., priority 2018, dated 2025)
